Primary screen of a compound library

Chains of the proteins cited; added tags and fusions are not shown. Residues count along the entry.
UniProt P9WFT3, whole entry: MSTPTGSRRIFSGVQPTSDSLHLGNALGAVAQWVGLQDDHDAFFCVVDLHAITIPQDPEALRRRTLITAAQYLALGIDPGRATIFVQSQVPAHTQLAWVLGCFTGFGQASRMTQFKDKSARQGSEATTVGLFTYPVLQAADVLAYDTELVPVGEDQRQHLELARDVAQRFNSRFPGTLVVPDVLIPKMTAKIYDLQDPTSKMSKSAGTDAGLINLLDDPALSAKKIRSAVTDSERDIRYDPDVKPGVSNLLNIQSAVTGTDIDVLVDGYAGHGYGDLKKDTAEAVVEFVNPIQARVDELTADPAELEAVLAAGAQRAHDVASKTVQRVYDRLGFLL
UniProt I6X8D2, whole entry: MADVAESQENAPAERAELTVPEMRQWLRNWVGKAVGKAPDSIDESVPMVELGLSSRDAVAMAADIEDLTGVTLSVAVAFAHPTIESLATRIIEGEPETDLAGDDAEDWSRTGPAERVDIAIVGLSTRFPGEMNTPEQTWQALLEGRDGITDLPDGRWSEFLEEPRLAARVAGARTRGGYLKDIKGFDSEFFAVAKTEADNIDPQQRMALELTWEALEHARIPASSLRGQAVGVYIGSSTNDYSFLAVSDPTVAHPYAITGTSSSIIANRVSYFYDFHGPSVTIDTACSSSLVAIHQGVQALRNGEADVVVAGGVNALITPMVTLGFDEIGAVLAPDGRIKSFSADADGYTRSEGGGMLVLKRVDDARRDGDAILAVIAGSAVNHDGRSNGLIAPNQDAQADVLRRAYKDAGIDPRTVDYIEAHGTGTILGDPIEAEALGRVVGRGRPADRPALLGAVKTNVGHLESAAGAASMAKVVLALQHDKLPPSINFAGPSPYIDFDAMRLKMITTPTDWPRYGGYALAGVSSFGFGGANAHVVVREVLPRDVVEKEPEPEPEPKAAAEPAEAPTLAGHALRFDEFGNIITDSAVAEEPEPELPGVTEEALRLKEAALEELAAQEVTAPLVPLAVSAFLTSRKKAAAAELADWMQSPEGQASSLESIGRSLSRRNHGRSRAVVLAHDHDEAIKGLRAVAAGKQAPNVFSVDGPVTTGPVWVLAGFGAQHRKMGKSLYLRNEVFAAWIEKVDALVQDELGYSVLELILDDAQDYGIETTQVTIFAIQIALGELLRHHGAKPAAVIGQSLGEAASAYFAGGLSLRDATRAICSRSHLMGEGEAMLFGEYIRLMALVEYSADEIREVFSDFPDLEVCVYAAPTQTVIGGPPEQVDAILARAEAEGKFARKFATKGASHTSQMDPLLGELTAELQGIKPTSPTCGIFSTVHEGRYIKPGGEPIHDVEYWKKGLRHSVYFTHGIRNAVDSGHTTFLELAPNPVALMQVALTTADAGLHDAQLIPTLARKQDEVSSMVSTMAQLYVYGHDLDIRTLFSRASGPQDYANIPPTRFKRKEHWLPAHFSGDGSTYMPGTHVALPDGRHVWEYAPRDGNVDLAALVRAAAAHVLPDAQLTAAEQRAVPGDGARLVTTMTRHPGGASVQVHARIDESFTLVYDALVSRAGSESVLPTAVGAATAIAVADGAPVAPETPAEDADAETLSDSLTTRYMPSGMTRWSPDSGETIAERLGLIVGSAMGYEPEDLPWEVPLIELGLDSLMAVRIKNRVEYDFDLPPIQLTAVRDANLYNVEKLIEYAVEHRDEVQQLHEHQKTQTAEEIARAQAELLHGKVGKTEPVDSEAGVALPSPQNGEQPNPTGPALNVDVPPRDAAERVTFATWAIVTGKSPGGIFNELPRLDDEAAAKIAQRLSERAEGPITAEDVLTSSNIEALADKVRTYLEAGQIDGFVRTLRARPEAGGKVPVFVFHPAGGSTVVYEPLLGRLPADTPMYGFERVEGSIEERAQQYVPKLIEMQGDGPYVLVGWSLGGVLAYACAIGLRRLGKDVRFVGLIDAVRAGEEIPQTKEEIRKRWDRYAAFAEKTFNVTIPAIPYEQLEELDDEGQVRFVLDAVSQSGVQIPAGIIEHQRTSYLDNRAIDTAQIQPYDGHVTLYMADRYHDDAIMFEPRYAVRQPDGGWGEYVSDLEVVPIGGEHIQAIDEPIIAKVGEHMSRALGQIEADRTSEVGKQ
UniProt A4I591, 1-473: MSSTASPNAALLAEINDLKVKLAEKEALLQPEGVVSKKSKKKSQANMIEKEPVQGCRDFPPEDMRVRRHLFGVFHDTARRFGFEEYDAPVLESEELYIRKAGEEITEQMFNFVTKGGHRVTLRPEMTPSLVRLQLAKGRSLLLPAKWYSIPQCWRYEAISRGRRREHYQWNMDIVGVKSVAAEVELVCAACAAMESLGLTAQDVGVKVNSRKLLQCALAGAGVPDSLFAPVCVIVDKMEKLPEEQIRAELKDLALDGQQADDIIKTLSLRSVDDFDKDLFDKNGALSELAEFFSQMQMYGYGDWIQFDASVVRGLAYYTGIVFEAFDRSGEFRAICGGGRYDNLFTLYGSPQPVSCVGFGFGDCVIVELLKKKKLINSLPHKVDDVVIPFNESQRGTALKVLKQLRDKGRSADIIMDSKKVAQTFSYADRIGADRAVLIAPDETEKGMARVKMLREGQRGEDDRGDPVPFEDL
UniProt Q4DA54, 1-478: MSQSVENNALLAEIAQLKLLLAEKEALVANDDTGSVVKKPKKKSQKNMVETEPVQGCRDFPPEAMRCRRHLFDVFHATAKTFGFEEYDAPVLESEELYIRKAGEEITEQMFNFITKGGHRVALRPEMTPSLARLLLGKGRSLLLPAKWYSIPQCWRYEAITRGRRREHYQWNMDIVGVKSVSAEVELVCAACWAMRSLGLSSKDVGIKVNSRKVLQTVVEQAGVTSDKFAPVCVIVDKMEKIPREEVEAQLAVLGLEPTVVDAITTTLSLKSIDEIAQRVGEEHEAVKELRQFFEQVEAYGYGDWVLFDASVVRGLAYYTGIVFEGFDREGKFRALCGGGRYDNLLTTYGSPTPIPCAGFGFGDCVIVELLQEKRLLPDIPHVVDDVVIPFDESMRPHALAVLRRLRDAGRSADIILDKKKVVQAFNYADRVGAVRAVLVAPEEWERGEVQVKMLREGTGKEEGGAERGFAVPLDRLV

MtTrpRS: 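Tryptophan-tRNA ligase, Mycobacterium tuberculosis (UniProt P9WFT3). Enzyme assay of tryptophanyl-tRNA synthetase; the read-out is not stated. Tested at 10 µM. Direction is not recorded; retested compounds ran higher, which suggests that high means inhibition. About 65,000 compounds were tested under these conditions; 0.098% (about 64) showed 50% or more at least once.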
Pks13 thioesterase: 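Enzyme assay of the thioesterase domain of polyketide synthase 13; the read-out is not stated. Target: Polyketide synthase Pks13, Mycobacterium tuberculosis (UniProt I6X8D2). Compounds at 30 µM. Higher reads as stronger inhibition (inferred from which compounds were picked for retests). Of about 67,000 compounds tested this way, about 300 (0.46%) reached 50% or more in at least one test.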
LiHisRS: 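Enzyme assay of histidyl-tRNA synthetase; the read-out is not stated. Target: Histidine-tRNA ligase, Leishmania infantum (UniProt A4I591). Concentration: 30 µM. The record gives no direction; compounds that gave an IC50 in retests scored well above the rest, so higher reads as stronger inhibition. The assay is labelled LdHisRS but filed under L. infantum. About 69,000 compounds were tested under these conditions; 0.6% (about 410) showed 50% or more at least once.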
TcHisRS: 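Enzyme assay of histidyl-tRNA synthetase; the read-out is not stated. Target: Histidine-tRNA ligase, Trypanosoma cruzi CL Brener (UniProt Q4DA54). Compounds at 30 µM. Higher reads as stronger inhibition (inferred: compounds with an IC50 in retests scored well above the rest). Of about 69,000 compounds tested this way, about 31 (0.045%) reached 50% or more in at least one test.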

Results are given as percent effect. The controls that fix the scale are not given in the record; negative values are as filed. Compounds were drawn at random from those tested, without regard to their results.

* CS(=O)(=O)N1CCC2(CCCN(Cc3ccccn3)C2)C1 (stereo not drawn) : MtTrpRS: 5.013%; Pks13 thioesterase: 20.95%; LiHisRS: 1.316%; TcHisRS: 9.783%
* CN(CCC(N)=O)Cc1cc(Br)cs1 : MtTrpRS: 3.563%; Pks13 thioesterase: -11.9%; LiHisRS: 9.756%; TcHisRS: 0.4808%
* COCCOc1ccc(Cl)c(C(=O)N2CCN(CCO)CC2)n1 : MtTrpRS: -4.674%; Pks13 thioesterase: -10.16%; LiHisRS: 8.696%; TcHisRS: 3.448%
* CC(C)COC(C)C(=O)NCc1ccccc1Cn1ccnc1 (stereo not drawn) : MtTrpRS: -7.339%; Pks13 thioesterase: -37.79%; LiHisRS: 1.333%; TcHisRS: 0.578%
* COCC(C)(NC(=O)c1cc(Cl)c(-n2cccc2)cc1OC)C(N)=O (stereo not drawn) : MtTrpRS: -0.6274%; Pks13 thioesterase: -20.91%; LiHisRS: 14.46%; TcHisRS: 4.972%
* CC1(C)CC(N2Cc3nc(N)ncc3C2=O)CC(C)(C)N1 : MtTrpRS: -4.225%; Pks13 thioesterase: 6.622%; LiHisRS: 17.92%; TcHisRS: 1.674%
* CCCN1CCC(N(C)CCC(=O)Nc2ccccc2SC)CC1 : MtTrpRS: -2.018%; Pks13 thioesterase: -7.422%; LiHisRS: 15.15%; TcHisRS: 1.087%
* CNCC(=O)Nc1cccc(-c2cnc(NCCO)nc2)c1 : Pks13 thioesterase: 16.78%; LiHisRS: 11.43%; TcHisRS: 10.17%
* CC(NC(=O)CCC(=O)c1cccs1)c1nnc2n1CCCCC2 (stereo not drawn) : MtTrpRS: -1.652%; Pks13 thioesterase: -4.391%; LiHisRS: -3.077%; TcHisRS: 1.916%
* Cn1cnc2c1CCN(Cc1csc(C3CCCCC3)n1)C2 : MtTrpRS: 10.3%; Pks13 thioesterase: -25.83%; LiHisRS: 25%; TcHisRS: -12.57%
* N#CCCn1nc(C(F)(F)F)c2c1CCC2 : Pks13 thioesterase: 20.09%; LiHisRS: 20.62%; TcHisRS: 1.156%
* CC(C)c1noc(-c2ccc(NCc3noc(C(C)C)n3)nc2)n1 : MtTrpRS: 3.179%; Pks13 thioesterase: 4.152%; LiHisRS: 4.396%; TcHisRS: 3.012%
* Cc1cn2nc(N3CCCN(Cc4noc(C)n4)CC3)sc2n1 : MtTrpRS: -0.2924%; Pks13 thioesterase: -7.793%; LiHisRS: 10.81%; TcHisRS: 1.128%
* CC(C)(C)c1n[nH]c(C2CN(Cc3nnc(C4CC4)o3)CCO2)n1 (stereo not drawn) : MtTrpRS: 1.146%; Pks13 thioesterase: -10.47%; LiHisRS: 3.39%; TcHisRS: 2.857%
* COC(=O)c1ccc(N2CCN(C(=O)C3CC3)C(C)C2)cc1 (stereo not drawn) : MtTrpRS: -2.511%; Pks13 thioesterase: -6.861%; LiHisRS: 12.5%; TcHisRS: 3.797%
* O=C(CCCOCc1ccccc1)N1CCCC(n2cncn2)C1 (stereo not drawn) : MtTrpRS: -1.695%; Pks13 thioesterase: -4.057%; LiHisRS: 6.14%; TcHisRS: 2.035%
* CCC(CO)N(Cc1ccco1)C(=O)c1ccc(F)cc1Cl (stereo not drawn) : MtTrpRS: -0.9054%; Pks13 thioesterase: -5.628%; LiHisRS: 6.452%; TcHisRS: 3.665%
* O=S(=O)(NC1CCC12CCN(CC1CCOCC1)CC2)c1ccccc1 (stereo not drawn) : MtTrpRS: 1.187%; LiHisRS: 17.24%; TcHisRS: 8.861%
* CCc1nnc(CN(CC)C(=O)C2CC(=O)N(C3CC3)C2)o1 (stereo not drawn) : MtTrpRS: 1.449%; Pks13 thioesterase: -1.529%; LiHisRS: 11.48%; TcHisRS: 5.6%
* Cc1cc(N2CCC(c3ncc[nH]3)CC2)cc(C)n1 : MtTrpRS: -2.196%; Pks13 thioesterase: -3.328%; LiHisRS: 14.46%; TcHisRS: 9.392%
* CCOc1cc(-c2cc(=O)n3c(n2)CCCCC3)ccc1O : MtTrpRS: -4.18%; Pks13 thioesterase: -5.412%; LiHisRS: -2.174%; TcHisRS: 0.9901%

For reference, 2 entries once more:

CC(NC(=O)CCC(=O)c1cccs1)c1nnc2n1CCCCC2 (stereo not drawn) read MtTrpRS: -1.652%; Pks13 thioesterase: -4.391%; LiHisRS: -3.077%; TcHisRS: 1.916%.
CN(CCC(N)=O)Cc1cc(Br)cs1 read MtTrpRS: 3.563%; Pks13 thioesterase: -11.9%; LiHisRS: 9.756%; TcHisRS: 0.4808%.

The values are deposited in ChEMBL (CHEMBL3988442, “University of Dundee, Small-Polar-MMV Screening Library” (2021)).